Experimental data from paper PMC4468853.
These are yes or no findings as the source states them, for the method shown. In cells and extracts the contact can be indirect. Some entries that bind do so weakly or less than the wild type. Tags and fused reporters may be left off the sequences shown.

By UniProt entry, the sequences of proteins in these tests, tags left out.
UniProt Q8WW35: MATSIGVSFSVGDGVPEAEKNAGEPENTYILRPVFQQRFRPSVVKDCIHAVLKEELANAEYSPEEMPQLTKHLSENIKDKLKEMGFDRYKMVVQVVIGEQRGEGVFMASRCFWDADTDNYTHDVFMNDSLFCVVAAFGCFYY

Target: Flag-tagged TCTEX1D2 (human) (UniProt Q8WW35)
Experiment: co-IP; overexpression of Flag-tagged TCTEX1D2 and GFP-tagged WDR60 in HEK293T cells

B1: GFP-tagged WDR60 (protein, UniProt Q8C761 1-999)
chain: MEPGKRRTKDDTWKADDLRKHLKVQSGSPKEEKKLREKKAHKDSESAAPEYREHKSRDPDREARHKEKTAERDLYTSTEHPRGERDRERHKERRKDAKDREKDKLKERHRDQEAEKAHSRGKDREREKDRRARKEEIRQSMAYHDLLSRDMRGRQMAEKVEKKASKIRTEERERRDEDSERIDEDRERRYRERKLQYGDSKEHPLSYWLYKEDGEKKHRKAKDADREKRLREKSSMREKRERHAREKGSSLSDREVEDRHREKRHKEGLHYDDERRRSHADKKERSSKEEHKKRELKELEKEDNDLEATGPDEYLPNLEDDFVDYEDDFEVCDGDDDSNNEHEAREKAEELPLAQKREIQEIQKAISAENERVGELSLKMFQKQGWTEYTKEPWTDANDSPSRTPVCGIFVDFATASHRQKSRSQALKQKTRSSKLLRLIDLDFSFTFSLLDLPPVNEYDMYIRNFGKKNTKQAYVQYNEDNVERDIQTEDIETREVWTQHPGEGTAVSGGSEEKDFSDVTVVPKIDTPRLANFLRAACQVVAVLLEEDRLAAGPSWIPRAQDKALNISDSSSQLNTSLPFLQSRKVSCLHASRVQRQTVVSVHDLPEKAFAPSLDSRHLLCVWDIWQPSGPQKVLICESKVTCCCFSPLKAFLLFAGTVHGSVVVWDLREDSRIHHYVRLSNCFWAFRTPTFSTDGILTSVNHRSPLQAIEPVATSAYKKQSFVLSPFSTQEEMAGLSFHIASLDETGVLNVWVVVELPKADISGSMSDLGLIPGGRIKLVHSTVIQLGNSLSHKDSELWGSTQTLSVKFLPSDPNHFVVGTDMGLISHSTRQDWRVSPRVFKPEQHGVRPIKVNVIDFSPFEETVFLAGCSDGSIRLHQLTSERPIMQWDNSTSGHAVTSLQWSPTRPAVFLVQDDASRIYVWDLLENDLGPVAQQPISPDKLVAMTIVGEPEKTSGSFVALVLARTSGTVDVQNLKRRWTTPAVDEHSQLRLLLQK
binding: binds
